Laboratory results taken from US20060293242A1, “Transporting of taxoid derivatives through the blood brain barrier” (priority 2001, published 2006).

Conditions: in water or in biological buffers

In the case of `CC(=O)O[C@H]1C(=O)[C@@]2(C)[C@H]([C@H](OC(=O)c3ccccc3)[C@]3(O)C[C@H](OC(=O)[C@H](O)[C@@H](NC(=O)c4ccccc4)c4ccccc4)C(C)=C1C3(C)C)[C@]1(OC(C)=O)CO[C@@H]1C[C@@H]2O` [Free Taxol, paclitaxel], the “solubility (in words)” value is reported as “very insoluble”.
